Test results reported in patent publication US20120034164A1, “TRUNCATED CAR PEPTIDES AND METHODS AND COMPOSITIONS USING TRUNCATED CAR PEPTIDES” (Sanford-Burnham Medical Research Institute California, priority 2010, published 2012).
Part of at least one peptide drawing is inferred or uncertain, most often the ends. Where a SMILES comes first, the peptide text is derived from it. Bridges are numbered along the chain shown (N, C = ends). The star is where a group is joined. 5FAM = O=C1OC2(c3ccc(O)cc3Oc3cc(O)ccc32)c2ccc(C(=O)*)cc21

Tests used:
human tumor xenografts = experiment: Homing of intravenously injected CAR to human tumor xenografts; type: in vivo; conditions: mice
[1] = system: SU5416/hypoxia-induced PAH lesions; type: in vivo, rat
Procedure: Adult male Sprague-Dawley rats (approx. 200 g) were injected subcutaneously with SU5416 (20 mg/kg body weight; SUGEN Inc, South San Francisco, Calif.), which was suspended in carboxymethylcellulose (0.5% carboxymethylcellulose sodium, 0.9% sodium chloride, 0.4% polysorbate, 0.9% benzyl alcohol in deionized water). The rats were then exposed to chronic hypoxia in a hypobaric chamber (barometric pressure, 410 mm Hg: inspired O2 tension, 76 mm Hg) for 3 weeks followed by an additional 6 weeks of reexposure to normoxia. Rats were examined at 9 weeks after the injection of SU5416 when they develop severe occlusive pulmonary arterial lesions (Abe, K. et al. Formation of plexiform lesions in experimental severe pulmonary arterial hypertension. Circulation 121, 2747-54 (2010)).
The following peptides were labeled with 5-carboxyfluorescein (FAM) and used for the lung targeting studies: CAR, CARSKNKDC (SEQ ID NO:147); VCAM1, […] (SEQ ID NO:13); CG7C control CGGGGGGGC (SEQ ID NO:14); CAR mutant (CAR-M), CAQSNNKDC (SEQ ID NO:15). Peptides were dissolved in PBS at the concentrations of 0.5 mg/mL. Hypertensive rats were injected with peptide solution through tail vein (3.3 mg/kg). At 2 hours after the injection, rats were perfused with PBS containing 1% bovine serum albumin under the deep anesthesia and tissues were fixed by systemic perfusion with 10% buffered formalin. […]

4T1 tumors = experiment: In vivo tumor homing of FAM-labeled peptides (confocal imaging); conditions: 200 μL of 1 mM FAM-peptide i.v.; circulation time 1 hour
[2] = system: human endothelial cells (HUVEC); experiment: Binding and internalization of CAR in cultured human endothelial cells; type: cell-based

C[C@@H]1NC(=O)[C@@H](NC(=O)c2ccc3c(c2)C(=O)OC32c3ccc(O)cc3Oc3cc(O)ccc32)CSSC[C@@H](C(=O)O)NC(=O)[C@H](CC(=O)O)NC(=O)[C@H](CCCCN)NC(=O)[C@H](CC(N)=O)NC(=O)[C@H](CCCCN)NC(=O)[C@H](CO)NC(=O)[C@H](CCCNC(=N)N)NC1=O [CAR, CARSKNKDC] (5FAM-CARSKNKDC-OH; disulfide 1-9)
homing to human tumor xenografts (human tumor xenografts): home to human tumor xenografts in mice with high selectivity and efficiency | accumulation of peptide in PAH lungs / PAH lesion ([1]; 9 weeks after SU5416, FAM-peptide 3.3 mg/kg i.v., 2 hours): prominent accumulation | detection in remodeled arteries from lung tissue ([1]; peptide 1 mg/300 g rat i.v. in hemodynamic study, anti-fluorescein staining): detected in high intensity in all layers of severely remodeled arteries | accumulation in tumor tissue (4T1 tumors): accumulated in the tumor tissue | binding to growing endothelial cells in culture [2]: specifically bound
